For at least one compound, name, drawing or mass did not settle the structure.
Assay: pH of aqueous solution
Type: physicochemical
Conditions: 0.5 µM aqueous solution

SMILES: CC[n+]1cc2c(O)c(OC)ccc2c2ccc3cc4c(cc3c21)OCO4 [2,3-(methylenedioxy)-5-ethyl-7-hydroxy-8-methoxy-benzo[c]phenanthridinium chloride, reference compound]
- pH: 4.3
